Test results as given in the supplement of paper PMC8728848.
The list shows a part of the results.

Columns and labels:
Experiment in all cases: glycan array binding signal (z-score within array); higher = stronger binding
Settings in all cases: glycan notation: IUPAC condensed, linker removed
[1] = target: Gal(b1-4)GalNAc(b1-3)[Fuc(a1-2)]Gal(b1-4)GlcNAc
Method in brief: (§1)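 From the Consortium for Functional Glycomics database, 3228 arrays were curated, keeping only those whose protein sequence was available. Binding is given as a within-array Z-score averaged across arrays sharing a protein sequence and across linkers. Negative Z-scores can be read as non-binding.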

Gal(b1-4)Glc = target: Gal(b1-4)Glc
Method in brief: as §1

Gal(b1-4)Glc6S = target: Gal(b1-4)Glc6S
Method in brief: as §1

Gal(b1-4)GlcNAc = target: Gal(b1-4)GlcNAc
Method in brief: as §1

[2] = target: Gal(b1-4)GlcNAc(a1-6)Gal(b1-4)GlcNAc
Method in brief: as §1

Gal(b1-4)GlcNAc(b1-2)Man = target: Gal(b1-4)GlcNAc(b1-2)Man
Method in brief: as §1

[3] = target: Gal(b1-4)GlcNAc(b1-2)Man(a1-3)Man(b1-4)GlcNAc(b1-4)GlcNAc
Method in brief: as §1

[4] = target: Gal(b1-4)GlcNAc(b1-2)Man(a1-3)[Gal(b1-4)GlcNAc(b1-2)Man(a1-6)]Man(b1-4)GlcNAc(b1-4)GlcNAc
Method in brief: as §1

[5] = target: Gal(b1-4)GlcNAc(b1-2)Man(a1-3)[Gal(b1-4)GlcNAc(b1-2)Man(a1-6)]Man(b1-4)GlcNAc(b1-4)[Fuc(a1-6)]GlcNAc
Method in brief: as §1

[6] = target: Gal(b1-4)GlcNAc(b1-2)Man(a1-3)[Gal(b1-4)GlcNAc(b1-2)Man(a1-6)][Gal(b1-4)GlcNAc(b1-4)]Man(b1-4)GlcNAc(b1-4)[Fuc(a1-6)]GlcNAc
Method in brief: as §1

[7] = target: Gal(b1-4)GlcNAc(b1-2)Man(a1-3)[Gal(b1-4)GlcNAc(b1-2)Man(a1-6)][GlcNAc(b1-4)]Man(b1-4)GlcNAc(b1-4)[Fuc(a1-6)]GlcNAc
Method in brief: as §1

[8] = target: Gal(b1-4)GlcNAc(b1-2)Man(a1-3)[GlcNAc(b1-2)Man(a1-6)]Man(b1-4)GlcNAc(b1-4)GlcNAc
Method in brief: as §1

[9] = target: Gal(b1-4)GlcNAc(b1-2)Man(a1-3)[GlcNAc(b1-4)][Gal(b1-4)GlcNAc(b1-2)Man(a1-6)]Man(b1-4)GlcNAc(b1-4)GlcNAc
Method in brief: as §1

[10] = target: Gal(b1-4)GlcNAc(b1-2)Man(a1-3)[Man(a1-6)]Man(b1-4)GlcNAc(b1-4)GlcNAc
Method in brief: as §1

[11] = target: Gal(b1-4)GlcNAc(b1-2)Man(a1-6)Man(b1-4)GlcNAc(b1-4)GlcNAc
Method in brief: as §1

[12] = target: Gal(b1-4)GlcNAc(b1-2)Man(a1-6)[GlcNAc(b1-2)Man(a1-3)]Man(b1-4)GlcNAc(b1-4)GlcNAc
Method in brief: as §1

[13] = target: Gal(b1-4)GlcNAc(b1-2)Man(a1-6)[Man(a1-3)]Man(b1-4)GlcNAc(b1-4)GlcNAc
Method in brief: as §1

[14] = target: Gal(b1-4)GlcNAc(b1-2)[Gal(b1-4)GlcNAc(b1-4)]Man(a1-3)[Gal(b1-4)GlcNAc(b1-2)Man(a1-6)]Man(b1-4)GlcNAc(b1-4)GlcNAc
Method in brief: as §1

[15] = target: Gal(b1-4)GlcNAc(b1-2)[Gal(b1-4)GlcNAc(b1-4)]Man(a1-3)[Gal(b1-4)GlcNAc(b1-2)[Gal(b1-4)GlcNAc(b1-6)]Man(a1-6)]Man(b1-4)GlcNAc(b1-4)GlcNAc
Method in brief: as §1

[16] = target: Gal(b1-4)GlcNAc(b1-2)[Gal(b1-4)GlcNAc(b1-4)]Man(a1-3)[GlcNAc(b1-4)][Gal(b1-4)GlcNAc(b1-2)Man(a1-6)]Man(b1-4)GlcNAc(b1-4)GlcNAc
Method in brief: as §1

[17] = target: Gal(b1-4)GlcNAc(b1-2)[Gal(b1-4)GlcNAc(b1-4)]Man(a1-3)[GlcNAc(b1-4)][Gal(b1-4)GlcNAc(b1-2)[Gal(b1-4)GlcNAc(b1-6)]Man(a1-6)]Man(b1-4)GlcNAc(b1-4)GlcNAc
Method in brief: as §1

[18] = target: Gal(b1-4)GlcNAc(b1-2)[Gal(b1-4)GlcNAc(b1-6)]Man(a1-6)[Gal(b1-4)GlcNAc(b1-2)Man(a1-3)]Man(b1-4)GlcNAc(b1-4)GlcNAc
Method in brief: as §1

[19] = target: Gal(b1-4)GlcNAc(b1-2)[Gal(b1-4)GlcNAc(b1-6)]Man(a1-6)[Gal(b1-4)GlcNAc(b1-2)Man(a1-3)]Man(b1-4)GlcNAc(b1-4)[Fuc(a1-6)]GlcNAc
Method in brief: as §1

[20] = target: Gal(b1-4)GlcNAc(b1-2)[Gal(b1-4)GlcNAc(b1-6)]Man(a1-6)[GlcNAc(b1-4)][Gal(b1-4)GlcNAc(b1-2)Man(a1-3)]Man(b1-4)GlcNAc(b1-4)GlcNAc
Method in brief: as §1

[21] = target: Gal(b1-4)GlcNAc(b1-2)[Gal(b1-4)GlcNAc(b1-6)]Man(a1-6)[GlcNAc(b1-4)][Gal(b1-4)GlcNAc(b1-2)[Gal(b1-4)GlcNAc(b1-4)]Man(a1-3)]Man(b1-4)GlcNAc(b1-4)[Fuc(a1-6)]GlcNAc
Method in brief: as §1

[22] = target: Gal(b1-4)GlcNAc(b1-3)Gal(b1-3)GalNAc
Method in brief: as §1

[23] = target: Gal(b1-4)GlcNAc(b1-3)Gal(b1-3)GlcNAc
Method in brief: as §1

[24] = target: Gal(b1-4)GlcNAc(b1-3)Gal(b1-4)Glc
Method in brief: as §1

[25] = target: Gal(b1-4)GlcNAc(b1-3)Gal(b1-4)GlcNAc
Method in brief: as §1

[26] = target: Gal(b1-4)GlcNAc(b1-3)Gal(b1-4)GlcNAc(b1-2)Man(a1-3)[Gal(b1-4)GlcNAc(b1-3)Gal(b1-4)GlcNAc(b1-2)Man(a1-6)]Man(b1-4)GlcNAc(b1-4)GlcNAc
Method in brief: as §1

B1: CcfD (Bacteroides fragilis), Q5L9G4 (protein)
chain: MKKQNSIYTLLIALLCFVSSCDYLGVSDQLAGGLQNTEQVFDNVSYTKRWYANVFAGIPDYSGINSVNVGAFKNPWTGMCDELVVGYGNSSKYNNSDRNAANMGFHRYGDCYKYIRQANIFLQKAHPIMTTGTQGDQLLEDELTQMKANVRFMRAFYHYLLFEQYGPIILVKDKIYNATEDQDVPRNTVDEVIEYIDSELTAVASELTQEPIFEDKDYRAWPTKGVALAVRAKLWLYAASPLLNGGYREALSVTNPDGTRLFPDYDAGKWEKALAACKDFIDYAEAGRYELYKEYKDDNGAVIDPDKSVYNLFQKYTHEIIWATANNDWGGMNGDAFDRRIAPRCEKNGLGSTGVTQELVDAFYMKDGFPVSATAYLPQSTLYQEEGYGTYKDQNDNFSKKYTNVTVSNRYLNREPRFYNTVFFNGRQWPVSCNQVLFYNGGNSGVQEGQATLTGYMLFKRFNRSVSLTNPGVASQFRPSIIFRLADFYLMYAEAANEVNPNDARVLKYLNLVRERAGLPDIETLNPAIRGNQELQRAAIQRERQIELATEGQRYFDVRRWMIADKNGEGRQNGYVHGMNVRGESNDKEDFNRIVEASQIVFNRKMYLYPMPDSEMRKTKNLVQNPGW
glycan array binding signal (z-score) [1]: -0.424
glycan array binding signal (z-score) (Gal(b1-4)Glc): -0.056
glycan array binding signal (z-score) (Gal(b1-4)Glc6S): -0.46
glycan array binding signal (z-score) (Gal(b1-4)GlcNAc): -0.721
glycan array binding signal (z-score) [2]: -0.108
glycan array binding signal (z-score) (Gal(b1-4)GlcNAc(b1-2)Man): 0.03
glycan array binding signal (z-score) [3]: 2.03
glycan array binding signal (z-score) [4]: -0.424
glycan array binding signal (z-score) [5]: -0.089
glycan array binding signal (z-score) [6]: 3.04
glycan array binding signal (z-score) [7]: -0.995
glycan array binding signal (z-score) [8]: -0.89
glycan array binding signal (z-score) [9]: -0.384
glycan array binding signal (z-score) [10]: -0.259
glycan array binding signal (z-score) [11]: -1.05
glycan array binding signal (z-score) [12]: 1.38
glycan array binding signal (z-score) [13]: -0.535
glycan array binding signal (z-score) [14]: 1.14
glycan array binding signal (z-score) [15]: -0.673
glycan array binding signal (z-score) [16]: -0.706
glycan array binding signal (z-score) [17]: -0.43
glycan array binding signal (z-score) [18]: -0.896
glycan array binding signal (z-score) [19]: -0.818
glycan array binding signal (z-score) [20]: -0.122
glycan array binding signal (z-score) [21]: -0.594
glycan array binding signal (z-score) [22]: -0.798
glycan array binding signal (z-score) [23]: -1.23
glycan array binding signal (z-score) [24]: 0.627
glycan array binding signal (z-score) [25]: -1.01
glycan array binding signal (z-score) [26]: 0.059
